This experiment deals with β-adrenergic receptors. Nature of the experiment: Modulation of the activity of β-adrenergic receptors (isoproterenol-induced cAMP synthesis in C6 glioma). It counts as cell-based. The settings on record: rat C6 glioma, cAMP synthesis induced by 5 μM (−) isoproterenol, 30 min. Here is the method: Mechanism of action of novel compounds is presented on FIG. 2. Rat C6 glioma (ATCC No CCL 107) was cultivated in monolayer in serum-free chemically defined medium containing Ham's F10/minimal essential medium (1:1 vol/vol), 2 mM L-glutamine, 1% (vol/vol) minimal essential medium vitamins (100×), 1% (vol/vol) minimal essential medium nonessential amino acids (100×), 100 U/ml penicillin, 100 μg/ml streptomycin and 30 nM sodium selenite. Incubation was at 37° C. in a humidified atmosphere. Assays were performed in the logaritmic growth phase at a density of 2.5×10^5 cells/cm^2. Intracellular cAMP synthesis was induced by addition of 5 μM (−) isoproterenol. After 30 min incubation at 37° C. the medium was removed and the cellular amount of cAMP determined using the cAMP-enzyme immunoassay kit of Amersham. The I50 is determined from a dose-response curve in duplicate. The effect of several novel substituted 6-(2-hydroxybenzylamino)purine derivatives was measured after simultaneous addition with isoproterenol.
As P2Y1-like and A2 purinergic receptors, negatively and positively coupled to adenylate cyclase respectively, are present on rat C6 glioma. It has to be determined if the modulation of the synthesis of cAMP is due to inhibition of the activation of β-adrenergic receptors by isoproterenol are due to activation of purinergic receptors.

Turning to `CC[C@H](CO)Nc1nc(NCc2ccccc2)c2ncn(C(C)C)c2n1` [ROSC, roscovitine, reference compound], the “IC50 (μM) (modulation of the activity of β-adrenergic receptors)” value was “inactive”.

The values are drawn from US8492391B2, “Substituted 6-(2-hydroxybenzylamino)purine derivatives, their use as medicaments and compositions containing these derivatives” (Univerzita Palackeho V Olomouci, priority 2009, dated 2013).
